According to patent US8486950B2, “Janus kinase inhibitor compounds and methods” (F. Hoffmann-La Roche AG, priority 2009, dated 2013):
Some entries share one result that the patent states for a list of compounds.

Biological target: T1, TYK2 kinase domain (Homo sapiens, UniProt P29597)
T1 construct: made in house; host or cells: SF9 insect cells (recombinant baculovirus)
T1 sequence (P29597 873-1187): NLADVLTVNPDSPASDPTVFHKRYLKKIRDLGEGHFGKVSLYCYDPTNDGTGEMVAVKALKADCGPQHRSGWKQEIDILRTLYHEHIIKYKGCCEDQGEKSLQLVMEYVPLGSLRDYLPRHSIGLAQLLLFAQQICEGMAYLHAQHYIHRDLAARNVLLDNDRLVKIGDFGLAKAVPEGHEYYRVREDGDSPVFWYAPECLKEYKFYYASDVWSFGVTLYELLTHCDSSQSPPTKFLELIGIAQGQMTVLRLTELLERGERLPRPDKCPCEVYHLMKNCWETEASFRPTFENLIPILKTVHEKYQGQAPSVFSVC
Experiment: TYK2 inhibition assay (Caliper LabChip, isolated kinase domain)
Format: biochemical
Conditions: 25 uM ATP, values given as 'about'

Row | Ki | Structure (SMILES)
1 | < 3.5 µM | Cc1cccc(F)c1C(=O)Nc1ccnc(NC(=O)C2CC2)c1 [Example 384, N-(2-(cyclopropanecarboxamido)pyridin-4-yl)-2-fluoro-6-methylbenzamide]
2 | < 3.5 µM | Cc1cc(Nc2cc(NC(=O)c3c(Cl)cc(CN)cc3Cl)ccn2)nc(C)n1 [Example 386, 4-(aminomethyl)-2,6-dichloro-N-(2-(2,6-dimethylpyrimidin-4-ylamino)pyridin-4-yl)benzamide]
3 | < 3.5 µM | Cc1cc(Nc2cc(NC(=O)c3c(Cl)cc(C#N)cc3Cl)ccn2)nc(N2CCOCC2)n1 [Example 388, 2,6-dichloro-4-cyano-N-(2-(6-methyl-2-morpholinopyrimidin-4-ylamino)pyridin-4-yl)benzamide]
4 | < 3.5 µM | O=C(Nc1ccnc(NC(=O)C2CC2)c1)c1c(Cl)cc(NC(=O)C2CC2)cc1Cl [Example 392]
5 | < 3.5 µM | CNCc1cc(Cl)c(C(=O)Nc2ccnc(Nc3cc(C)nc(C)n3)c2)c(Cl)c1 [Example 394, 2,6-dichloro-N-(2-(2,6-dimethylpyrimidin-4-ylamino)pyridin-4-yl)-4-((methylamino)methyl)-benzamide]
6 | < 3.5 µM | Cc1cc(Nc2cc(NC(=O)c3c(Cl)cc(CN)cc3Cl)ccn2)nc(N2CCOCC2)n1 [Example 395, 4-(aminomethyl)-2,6-dichloro-N-(2-(6-methyl-2-morpholinopyrimidin-4-ylamino)pyridin-4-yl)benzamide]
7 | < 3.5 µM | Cc1cc(Nc2cc(NC(=O)c3c(Cl)cc(CN)cc3Cl)ccn2)nc(N(C)C)n1 [Example 396, 4-(aminomethyl)-2,6-dichloro-N-(2-(2-(dimethylamino)-6-methylpyrimidin-4-ylamino)pyridin-4-yl)benzamide]
8 | < 3.5 µM | CNCc1cc(Cl)c(C(=O)Nc2ccnc(Nc3cc(C)nc(N4CCOCC4)n3)c2)c(Cl)c1 [Example 397, 2,6-dichloro-N-(2-(6-methyl-2-morpholinopyrimidin-4-ylamino)pyridin-4-yl)-4-((methylamino)methyl)-benzamide]
9 | < 3.5 µM | CCNCc1cc(Cl)c(C(=O)Nc2ccnc(Nc3cc(C)nc(C)n3)c2)c(Cl)c1 [Example 398, 2,6-dichloro-N-(2-(2,6-dimethylpyrimidin-4-ylamino)pyridin-4-yl)-4-((ethylamino)methyl)-benzamide]
10 | < 3.5 µM | Cc1cc(Nc2cc(NC(=O)c3c(Cl)cc(CNC(C)(C)C)cc3Cl)ccn2)nc(C)n1 [Example 399, 4-((tert-butylamino)methyl)-2,6-dichloro-N-(2-(2,6-dimethylpyrimidin-4-ylamino)pyridin-4-yl)benzamide]
11 | < 3.5 µM | Cc1cc(Nc2cc(NC(=O)c3c(Cl)cc(CNC(C)C)cc3Cl)ccn2)nc(C)n1 [Example 400, 2,6-dichloro-N-(2-(2,6-dimethylpyrimidin-4-ylamino)pyridin-4-yl)-4-((isopropylamino)methyl)-benzamide]
12 | < 3.5 µM | Cc1cc(Nc2cc(NC(=O)c3c(Cl)cc(CNC4CC4)cc3Cl)ccn2)nc(C)n1 [Example 401, 2,6-dichloro-4-((cyclopropylamino)-methyl)-N-(2-(2,6-dimethylpyrimidin-4-ylamino)pyridin-4-yl)benzamide]
13 | < 3.5 µM | Cc1cc(Nc2cc(NC(=O)c3c(Cl)cc(CNCC4CC4)cc3Cl)ccn2)nc(C)n1 [Example 402, 2,6-dichloro-4-((cyclopropanemethylamino)-methyl)-N-(2-(2,6-dimethylpyrimidin-4-ylamino)pyridin-4-yl)benzamide]
14 | < 3.5 µM | CCNCc1cc(Cl)c(C(=O)Nc2ccnc(Nc3cc(C)nc(N4CCOCC4)n3)c2)c(Cl)c1 [Example 403, 2,6-dichloro-4-((ethylamino)methyl)-N-(2-(6-methyl-2-morpholinopyrimidin-4-ylamino)pyridin-4-yl)benzamide]
15 | < 3.5 µM | Cc1cc(Nc2cc(NC(=O)c3c(Cl)cc(CNC(C)C)cc3Cl)ccn2)nc(N2CCOCC2)n1 [Example 404, 2,6-dichloro-4-((isopropylamino)methyl)-N-(2-(6-methyl-2-morpholinopyrimidin-4-ylamino)pyridin-4-yl)benzamide]
16 | < 3.5 µM | Cc1cc(Nc2cc(NC(=O)c3c(Cl)cc(CNC4CC4)cc3Cl)ccn2)nc(N2CCOCC2)n1 [Example 405, 2,6-dichloro-4-((cyclopropylamino)methyl)-N-(2-(6-methyl-2-morpholinopyrimidin-4-ylamino)pyridin-4-yl)benzamide]
17 | < 3.5 µM | Cc1cc(Nc2cc(NC(=O)c3c(Cl)cc(CNCC4CC4)cc3Cl)ccn2)nc(N2CCOCC2)n1 [Example 406, 2,6-dichloro-4-((cyclopropylmethylamino)-methyl)-N-(2-(6-methyl-2-morpholinopyrimidin-4-ylamino)pyridin-4-yl)benzamide]
18 | < 3.5 µM | Cc1cc(Nc2cc(NC(=O)c3c(Cl)cc(CNCCO)cc3Cl)ccn2)nc(C)n1 [Example 408, 2,6-dichloro-N-(2-(2,6-dimethylpyrimidin-4-ylamino)pyridin-4-yl)-4-((2-hydroxyethylamino)-methyl)-benzamide]

Row | Ki | Structure (SMILES)
19 | < 3.5 µM | COc1cc(Cl)cc(Cl)c1C(=O)Nc1ccnc(NC(=O)C2CC2)c1 [Example 409, 2,4-dichloro-N-(2-(cyclopropanecarboxamido)pyridin-4-yl)-6-methoxybenzamide]
20 | < 3.5 µM | O=C(Nc1ccnc(NC(=O)C2CC2)c1)c1c(O)cc(Cl)cc1Cl [Example 411, 2,4-dichloro-N-(2-(cyclopropanecarboxamido)pyridin-4-yl)-6-hydroxybenzamide]
21 | < 3.5 µM | Cc1cc(Nc2cc(NC(=O)c3c(Cl)cc(Cl)cc3Cl)ccn2)nc(N(C)CCO)n1 [Example 412, 2,4,6-trichloro-N-(2-(2-((2-hydroxyethyl)(methyl)-amino)-6-methylpyrimidin-4-ylamino)pyridin-4-yl)benzamide]
22 | < 3.5 µM | Cc1cc(Nc2cc(NC(=O)c3c(Cl)cc(Cl)cc3Cl)ccn2)nc(N(CCO)CCO)n1 [Example 413, N-(2-(2-(bis(2-hydroxyethyl)amino)-6-methylpyrimidin-4-ylamino)pyridin-4-yl)-2,4,6-trichlorobenzamide]
23 | < 3.5 µM | Cc1cc(Nc2cc(NC(=O)c3c(Cl)cc(C#N)cc3Cl)ccn2)nc(N(C)CCO)n1 [Example 414, 2,6-dichloro-4-cyano-N-(2-(2-((2-hydroxyethyl)(methyl)-amino)-6-methylpyrimidin-4-ylamino)pyridin-4-yl)benzamide]
24 | < 3.5 µM | Cc1cc(Nc2cc(NC(=O)c3c(Cl)cc(C#N)cc3Cl)ccn2)nc(N(CCO)CCO)n1 [Example 415, N-(2-(2-(bis(2-hydroxyethyl)amino)-6-methylpyrimidin-4-ylamino)pyridin-4-yl)-2,6-dichloro-4-cyanobenzamide]
25 | < 3.5 µM | Cc1cc(Nc2cc(NC(=O)c3c(Cl)cc(CO)cc3Cl)ccn2)nc(NCCO)n1 [Example 416, 2,6-dichloro-N-(2-(2-(2-hydroxyethylamino)-6-methylpyrimidin-4-ylamino)pyridin-4-yl)-4-(hydroxymethyl)-benzamide]
26 | < 3.5 µM | Cc1cc(Nc2cc(NC(=O)c3c(Cl)cc(CO)cc3Cl)ccn2)nc(N(CCO)CCO)n1 [Example 417, N-(2-(2-(bis(2-hydroxyethyl)amino)-6-methylpyrimidin-4-ylamino)pyridin-4-yl)-2,6-dichloro-4-(hydroxymethyl)benzamide]
27 | < 3.5 µM | CCNCc1cc(Cl)c(C(=O)Nc2ccnc(Nc3cc(C)nc(NCCO)n3)c2)c(Cl)c1 [Example 418]
28 | < 3.5 µM | Cc1cc(Nc2cc(NC(=O)c3c(Cl)cc(C#N)cc3Cl)ccn2)nc(NCCO)n1 [Example 419, 2,6-dichloro-4-cyano-N-(2-(2-(2-hydroxyethylamino)-6-methylpyrimidin-4-ylamino)pyridin-4-yl)benzamide]
29 | < 3.5 µM | Cc1cc(Nc2cc(NC(=O)c3c(Cl)cc(Cl)cc3Cl)ccn2)nc(NCCO)n1 [Example 420, 2,4,6-trichloro-N-(2-(2-(2-hydroxyethylamino)-6-methylpyrimidin-4-ylamino)pyridin-4-yl)benzamide]
30 | < 3.5 µM | Cc1cc(Nc2cc(NC(=O)c3c(Cl)cc(CO)cc3Cl)ccn2)nc(N(C)CCO)n1 [Example 421, 2,6-dichloro-N-(2-(2-((2-hydroxyethyl)(methyl)-amino)-6-methylpyrimidin-4-ylamino)pyridin-4-yl)-4-(hydroxymethyl)benzamide]
31 | < 3.5 µM | Cc1cc(Nc2cc(NC(=O)c3c(Cl)cc(CN)cc3Cl)ccn2)nc(NCCO)n1 [Example 422, 4-(aminomethyl)-2,6-dichloro-N-(2-(2-(2-hydroxyethylamino)-6-methylpyrimidin-4-ylamino)pyridin-4-yl)benzamide]
32 | < 3.5 µM | Cc1cc(Nc2cc(NC(=O)c3c(Cl)cc(CN)cc3Cl)ccn2)nc(N(C)CCO)n1 [Example 423, 4-(aminomethyl)-2,6-dichloro-N-(2-(2-((2-hydroxyethyl)(methyl)-amino)-6-methylpyrimidin-4-ylamino)pyridin-4-yl)benzamide]
33 | < 3.5 µM | CCNCc1cc(Cl)c(C(=O)Nc2ccnc(Nc3cc(C)nc(N(C)CCO)n3)c2)c(Cl)c1 [Example 424, 2,6-dichloro-4-((ethylamino)methyl)-N-(2-(2-((2-hydroxyethyl)(methyl)-amino)-6-methylpyrimidin-4-ylamino)pyridin-4-yl)benzamide]
34 | < 3.5 µM | CCNCc1cc(Cl)c(C(=O)Nc2ccnc(Nc3cc(C)nc(N(CCO)CCO)n3)c2)c(Cl)c1 [Example 425, N-(2-(2-(bis(2-hydroxyethyl)amino)-6-methylpyrimidin-4-ylamino)pyridin-4-yl)-2,6-dichloro-4-((ethylamino)methyl)benzamide]
35 | < 3.5 µM | Cc1cc(Nc2cc(NC(=O)c3c(Cl)cc(CNC(C)(C)C)cc3Cl)ccn2)nc(N2CCOCC2)n1 [Example 426, 4-((tert-butylamino)methyl)-2,6-dichloro-N-(2-(6-methyl-2-morpholinopyrimidin-4-ylamino)pyridin-4-yl)benzamide]
